Measurements published in PMC10588359.
No constants are given. Whether binding was seen depends on the method and setting.

By UniProt entry, the sequences of proteins in these tests, tags left out. Where a name states a change or a piece, a line headed by the entry shows the natural chain unless it says otherwise. Chains listed by the source or under a name are the forms on record and can include a tag or linker.
CaMKK2_(93–517) D330A, unphosphorylated (Q96RR4, form named): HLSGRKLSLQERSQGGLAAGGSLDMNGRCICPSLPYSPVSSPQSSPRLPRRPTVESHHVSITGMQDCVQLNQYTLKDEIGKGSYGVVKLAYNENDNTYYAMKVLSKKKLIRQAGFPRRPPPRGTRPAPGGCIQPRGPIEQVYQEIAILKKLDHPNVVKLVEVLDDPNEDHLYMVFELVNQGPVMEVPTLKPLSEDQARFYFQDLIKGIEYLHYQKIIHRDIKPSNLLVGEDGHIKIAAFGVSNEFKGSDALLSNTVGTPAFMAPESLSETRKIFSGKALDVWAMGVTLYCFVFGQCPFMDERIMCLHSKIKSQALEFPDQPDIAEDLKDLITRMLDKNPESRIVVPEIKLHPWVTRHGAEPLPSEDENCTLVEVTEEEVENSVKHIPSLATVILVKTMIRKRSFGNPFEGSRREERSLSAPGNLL

Target: CaMKK2_(93–517) D330A, unphosphorylated (human) (UniProt Q96RR4)
Assay: AUC; sedimentation velocity of CaMKKs alone at two concentrations (CaMKK1 at 10 μM); 50 mM Tris–HCl pH 7.5, 150 mM NaCl, 1 mM TCEP; 20°C, 42,000 rpm; monomer to dimer; both purified

binding: no binding
Substance: CaMKK2_(93–517) D330A, unphosphorylated (from UniProt Q96RR4 93-517) (domain or fragment)
